The list shows a part of the results. These are further read-outs of the screen, such as a control signal, another cell line or another target. No call is given for them. Most of these compounds were active or inconclusive in the main read-out, so they are no random draw. The note in brackets gives the kind of curve behind each potency; many fits are weak.
Test: qHTS Assay to Find Inhibitors of Chronic Active B-Cell Receptor Signaling
Conditions: ABC-DLBCL IkBa-CBG/CBR reporter, luminescence ratio (green luciferase fused to IkBa over red control in TMD8 lymphoma cells), 4 h
In short: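 Concentration-response series (up to 46 uM) were applied to TMD8 dual-reporter cells for 4 h at 37C with doxycycline. Green/red ratio, after filter-overlap correction, defined %Activity; red signal alone was normalised to basal cells and zero luminescence.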

[1] = measured here: CBR red luminescence, cell number
[2] = measured here: IkBa-CBG green luminescence

| SMILES | AC50 [1] | AC50 [2] |
| --- | --- | --- |
| O=C1CN(c2ccccc2)C(=S)N1C(=O)c1ccc(Br)cc1 | 31.6 µM [falling, single point] |  |
| COc1ccc(C2N(c3ccc4c(c3)OCCO4)C(=O)C2(F)F)cc1OC (stereo not given) | 35.5 µM [rising, partial curve, poor fit] |  |
| COc1ccccc1-c1nnc(SCC(=O)N2CCCCC2)o1 | 35.5 µM [falling, single point] |  |
| Clc1ccc(-c2nn3c(C4COc5ccccc5O4)nnc3s2)cc1 (stereo not given) | 2.51 µM [rising, full curve, poor fit] |  |
| COc1ccccc1NC(=O)NCCCCc1ccccc1 | 12.6 µM [falling, single point] |  |
| COc1cc2c(cc1OC)CN(C(=O)Nc1ccccc1)CC2 | 8.91 µM [falling, partial curve] |  |
| O=c1c2cc(Br)ccc2nc(-c2ccc(Cl)cc2)n1O | 3.16 µM [falling, partial curve] |  |
| Cc1ccccc1OCC(O)CNC1CCC(NCC(O)COc2ccccc2C)CC1 (stereo not given) | 2.51 µM [falling, partial curve, poor fit] |  |
| CCC(C)Nc1nc(N)c([N+](=O)[O-])c(NCc2ccccc2)n1 (stereo not given) | 2.51 µM [rising, full curve, poor fit] |  |
| COc1ccc(NC(=O)C2CCOC(C)(C)C2)cc1 (stereo not given) | 0.891 µM [rising, full curve, poor fit] |  |
| O=C(Nc1nc(-c2cccnc2)cs1)c1ccccc1Cl | 0.501 µM [falling, full curve, poor fit] |  |
| COc1ccc(-c2nc3sc(CCNC(=O)c4ccco4)c(C)n3n2)cc1 | 6.31 µM [rising, full curve] |  |
| Nc1nnc(-c2cc3c(ccc4ccccc43)oc2=O)s1 | 35.5 µM [falling, single point] |  |
| Cn1c(Cn2cnc3ccccc32)nnc1SCC(=O)CC(=O)Nc1ccccc1 | 35.5 µM [falling, single point] |  |
| COc1ccc(/C=C/C(=O)OC(C)C(=O)c2ccccc2)cc1OC (stereo not given) | 23.1 µM [rising, single point] |  |
| CC(C)(C)c1ccc(C(=O)Nc2ccc(S(N)(=O)=O)cc2)cc1 | 0.891 µM [rising, full curve, poor fit] | 15.8 µM [falling, partial curve, poor fit] |
| COc1ccc(Cn2nnnc2CN(Cc2cc3cc(C)ccc3[nH]c2=O)C2CCCC2)cc1 | 0.651 µM [rising, full curve, poor fit] |  |
| COc1cc2cnc(-c3ccccc3)cc2cc1OC | 0.259 µM [rising, full curve] | 23.1 µM [falling, partial curve, poor fit] |
| C=CCSc1nnc2c(n1)OC(c1cccnc1)Nc1ccccc1-2 (stereo not given) | 35.5 µM [falling, single point] |  |
| COc1ccc(CC(=O)Nc2ccccc2C(=O)N2CCOCC2)cc1 | 29.1 µM [rising, single point] |  |
| COc1ccccc1-n1cnnc1SCC(=O)Nc1ccccc1 | 22.4 µM [falling, single point] |  |

| SMILES | AC50 [1] | AC50 [2] |
| --- | --- | --- |
| COc1ccc(-c2cc(-c3ccccc3)n[nH]2)c(O)c1 | 12.6 µM [falling, partial curve, poor fit] |  |
| CCn1c(SCC(=O)O)nnc1-c1cc2c(C)nn(-c3ccccc3)c2s1 | 3.98 µM [falling, partial curve] |  |
| COc1ccc(-c2ccc(SCC(=O)NCC3CCCO3)nn2)cc1OC (stereo not given) | 8.91 µM [rising, partial curve] |  |
| CC1CCC2C(=O)N(c3ccc(C(=O)Oc4cccc5cccnc45)cc3)C(=O)C2C1 (stereo not given) | 29.1 µM [falling, single point] | 3.26 µM [falling, partial curve, poor fit] |
| CSc1ccccc1C(=O)Nc1ccc2c(c1)OCO2 | 25.1 µM [falling, partial curve, poor fit] |  |
| O=C(CCC1CCCC1)N1CCC(N2CCN(c3ccccc3)CC2)CC1 | 0.00461 µM [falling, full curve, poor fit] |  |
| N=C(N)SCc1cn(-c2ccccc2)nc1-c1ccc(Br)cc1 | 35.5 µM [falling, single point] |  |
| O=C(Nc1ccccc1N1CCN(c2ccccc2)CC1)c1cccc(F)c1 | 29.1 µM [rising, single point] |  |
| O=c1c2ccccc2nnn1COc1ccc(F)cc1Cl | 11.2 µM [falling, partial curve, poor fit] |  |
| Cc1c(CCC(=O)NCCCC(=O)O)c(=O)oc2cc3oc4c(c3cc12)CCCC4 | 7.08 µM [rising, partial curve] | 7.94 µM [falling, partial curve] |
| O=C(c1nc2nc(-c3cccs3)cc(C(F)(F)F)n2n1)N1CCN(Cc2ccccc2)CC1 | 0.517 µM [rising, full curve, poor fit] |  |
| C/C(=N\NC(=O)c1ccc(OC2CCCC2)cc1)c1ccc(O)cc1 | 1.12 µM [falling, full curve] |  |
| COc1ccc(C(=O)C2CCCN(S(=O)(=O)c3ccccc3F)C2)c(C)c1 (stereo not given) | 25.1 µM [falling, single point] |  |
| Cc1[nH]c(=O)[nH]c(=O)c1S(=O)(=O)N1CCCC(C(=O)NCCc2ccccc2)C1 (stereo not given) | 18.4 µM [rising, single point] |  |
| Oc1c(C(c2ccccn2)N2CCOCC2)ccc2cccnc12 (stereo not given) |  | 3.16 µM [falling, partial curve, poor fit] |
| Clc1ccc(-c2cn3ccccc3n2)cc1 | 15.8 µM [falling, single point] |  |
| COC(=O)C1=C(C)Nc2nnnn2C1c1cccnc1 (stereo not given) | 3.66 µM [rising, single point] |  |
| O=C1CC(N2CCOCC2)C(=O)N1c1cc(Cl)cc(Cl)c1 (stereo not given) | 11.2 µM [falling, partial curve, poor fit] |  |
| COc1ccccc1NC(=O)CCCc1c[nH]c2ccccc12 | 8.2 µM [falling, partial curve, poor fit] |  |
| O=C(Nc1sc2c(c1C(=O)O)CCC2)c1cccs1 | 2 µM [falling, full curve, poor fit] |  |

Already shown: entries from further up.

| SMILES | AC50 [1] | AC50 [2] |
| --- | --- | --- |
| COc1ccc(C(=O)C2CCCN(S(=O)(=O)c3ccccc3F)C2)c(C)c1 (stereo not given) | 25.1 µM [falling, single point] |  |
| Cc1[nH]c(=O)[nH]c(=O)c1S(=O)(=O)N1CCCC(C(=O)NCCc2ccccc2)C1 (stereo not given) | 18.4 µM [rising, single point] |  |

Source: PubChem BioAssay AID493014 (National Center for Advancing Translational Sciences (NCATS), 2011)
